Source: the supplement of paper PMC12823440, “Inhibitors supercharge kinase turnover through native proteolytic circuits” (Nature, 2025)
Structures can show the parent of a compound that is named as a salt. The list shows a part of the results. Hit calls seldom repeat between salt and free forms of one compound.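 Kinases, fused to nanoluciferase, were expressed in K562 cells; luminescence was measured every 4 h from 2 to 18 h as percent of control (DMSO = 100%, positive control = 0%). A time point is decreased if signal falls significantly (2 sigma). Hits were called by the authors by a rule that is not shown; the count of time points alone does not decide it.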

Amino acid sequences for entries named in this document (tags omitted). A change or cut given only in a name is not applied to a line headed by its entry.
UniProt Q9BRS2: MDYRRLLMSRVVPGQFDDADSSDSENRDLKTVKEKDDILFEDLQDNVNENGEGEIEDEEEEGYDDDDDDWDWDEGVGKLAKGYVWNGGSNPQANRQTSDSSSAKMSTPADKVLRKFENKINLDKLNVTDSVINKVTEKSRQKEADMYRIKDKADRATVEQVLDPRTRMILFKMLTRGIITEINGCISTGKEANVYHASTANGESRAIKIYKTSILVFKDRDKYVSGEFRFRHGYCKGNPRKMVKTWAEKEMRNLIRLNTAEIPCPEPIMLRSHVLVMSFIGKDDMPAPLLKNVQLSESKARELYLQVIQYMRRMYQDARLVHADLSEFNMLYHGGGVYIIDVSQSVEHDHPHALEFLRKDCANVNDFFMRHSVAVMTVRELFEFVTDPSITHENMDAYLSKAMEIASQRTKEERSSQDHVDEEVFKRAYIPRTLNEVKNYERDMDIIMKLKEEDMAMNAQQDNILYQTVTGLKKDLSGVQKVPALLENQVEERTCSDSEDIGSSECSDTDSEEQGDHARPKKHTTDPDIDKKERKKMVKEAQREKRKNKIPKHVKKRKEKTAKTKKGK
UniProt Q01974, whole entry: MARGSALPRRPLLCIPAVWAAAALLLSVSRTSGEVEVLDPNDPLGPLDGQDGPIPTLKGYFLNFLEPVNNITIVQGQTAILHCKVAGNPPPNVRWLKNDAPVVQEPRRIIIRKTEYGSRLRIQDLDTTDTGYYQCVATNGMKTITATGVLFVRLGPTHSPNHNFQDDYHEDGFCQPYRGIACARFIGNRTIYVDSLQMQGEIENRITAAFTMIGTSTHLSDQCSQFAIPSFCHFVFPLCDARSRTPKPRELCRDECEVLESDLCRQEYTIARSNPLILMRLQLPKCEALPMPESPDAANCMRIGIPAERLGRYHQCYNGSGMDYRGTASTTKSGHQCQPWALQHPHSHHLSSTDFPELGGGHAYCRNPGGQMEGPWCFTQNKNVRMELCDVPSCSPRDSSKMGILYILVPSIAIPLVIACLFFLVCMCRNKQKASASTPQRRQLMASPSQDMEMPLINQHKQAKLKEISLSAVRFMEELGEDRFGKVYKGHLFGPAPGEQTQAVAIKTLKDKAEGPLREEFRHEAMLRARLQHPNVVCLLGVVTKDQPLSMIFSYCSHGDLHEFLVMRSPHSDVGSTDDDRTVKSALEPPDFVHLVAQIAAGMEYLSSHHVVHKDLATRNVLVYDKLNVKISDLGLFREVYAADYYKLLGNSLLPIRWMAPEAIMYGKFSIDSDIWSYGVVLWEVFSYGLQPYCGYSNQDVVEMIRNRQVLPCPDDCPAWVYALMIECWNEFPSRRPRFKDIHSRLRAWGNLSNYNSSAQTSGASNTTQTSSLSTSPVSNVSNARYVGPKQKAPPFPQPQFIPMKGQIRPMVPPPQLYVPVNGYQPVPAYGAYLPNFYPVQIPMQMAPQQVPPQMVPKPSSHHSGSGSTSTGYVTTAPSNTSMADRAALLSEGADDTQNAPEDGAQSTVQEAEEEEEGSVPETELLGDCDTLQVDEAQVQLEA
UniProt Q15418, whole entry: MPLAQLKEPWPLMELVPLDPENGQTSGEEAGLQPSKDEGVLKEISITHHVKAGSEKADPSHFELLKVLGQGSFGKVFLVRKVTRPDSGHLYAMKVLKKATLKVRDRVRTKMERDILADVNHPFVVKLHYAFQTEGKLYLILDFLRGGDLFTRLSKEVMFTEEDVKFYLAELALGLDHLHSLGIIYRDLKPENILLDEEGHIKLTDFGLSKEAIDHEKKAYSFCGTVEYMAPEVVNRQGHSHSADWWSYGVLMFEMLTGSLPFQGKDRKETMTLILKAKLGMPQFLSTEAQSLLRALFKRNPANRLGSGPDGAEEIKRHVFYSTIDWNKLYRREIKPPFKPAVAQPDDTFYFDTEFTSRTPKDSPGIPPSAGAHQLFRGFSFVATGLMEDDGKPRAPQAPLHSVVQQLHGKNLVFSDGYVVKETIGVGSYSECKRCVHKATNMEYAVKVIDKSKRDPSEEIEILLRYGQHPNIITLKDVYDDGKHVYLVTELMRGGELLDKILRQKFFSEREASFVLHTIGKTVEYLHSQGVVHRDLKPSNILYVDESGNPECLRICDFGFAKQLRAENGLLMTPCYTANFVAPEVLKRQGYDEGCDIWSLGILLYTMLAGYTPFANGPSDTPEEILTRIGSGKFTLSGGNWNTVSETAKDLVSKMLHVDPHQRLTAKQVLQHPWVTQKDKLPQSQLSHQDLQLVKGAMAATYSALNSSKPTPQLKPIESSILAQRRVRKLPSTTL
UniProt Q9NYA1, whole entry: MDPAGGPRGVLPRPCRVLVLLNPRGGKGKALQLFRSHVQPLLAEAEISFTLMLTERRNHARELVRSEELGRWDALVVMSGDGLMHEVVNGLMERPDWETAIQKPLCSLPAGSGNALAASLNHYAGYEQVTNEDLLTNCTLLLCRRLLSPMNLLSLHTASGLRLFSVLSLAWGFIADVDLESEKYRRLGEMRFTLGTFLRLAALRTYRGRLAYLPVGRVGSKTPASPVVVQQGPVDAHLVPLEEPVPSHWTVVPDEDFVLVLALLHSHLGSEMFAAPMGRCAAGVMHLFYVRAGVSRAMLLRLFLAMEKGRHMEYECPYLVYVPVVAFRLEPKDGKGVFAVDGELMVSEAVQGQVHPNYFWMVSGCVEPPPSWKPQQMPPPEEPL
UniProt Q15208: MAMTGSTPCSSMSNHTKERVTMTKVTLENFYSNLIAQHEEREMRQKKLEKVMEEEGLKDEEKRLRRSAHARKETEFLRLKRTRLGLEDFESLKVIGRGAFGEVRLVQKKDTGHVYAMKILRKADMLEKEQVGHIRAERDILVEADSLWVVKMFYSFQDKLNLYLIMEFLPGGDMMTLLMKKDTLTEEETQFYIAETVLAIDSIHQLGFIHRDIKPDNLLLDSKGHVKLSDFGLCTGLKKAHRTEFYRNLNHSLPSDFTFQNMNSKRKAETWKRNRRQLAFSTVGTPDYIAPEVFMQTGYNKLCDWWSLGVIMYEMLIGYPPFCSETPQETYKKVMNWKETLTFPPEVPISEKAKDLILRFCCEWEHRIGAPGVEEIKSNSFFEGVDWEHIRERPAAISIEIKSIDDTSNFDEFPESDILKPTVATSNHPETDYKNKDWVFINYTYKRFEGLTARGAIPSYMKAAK
UniProt P42680: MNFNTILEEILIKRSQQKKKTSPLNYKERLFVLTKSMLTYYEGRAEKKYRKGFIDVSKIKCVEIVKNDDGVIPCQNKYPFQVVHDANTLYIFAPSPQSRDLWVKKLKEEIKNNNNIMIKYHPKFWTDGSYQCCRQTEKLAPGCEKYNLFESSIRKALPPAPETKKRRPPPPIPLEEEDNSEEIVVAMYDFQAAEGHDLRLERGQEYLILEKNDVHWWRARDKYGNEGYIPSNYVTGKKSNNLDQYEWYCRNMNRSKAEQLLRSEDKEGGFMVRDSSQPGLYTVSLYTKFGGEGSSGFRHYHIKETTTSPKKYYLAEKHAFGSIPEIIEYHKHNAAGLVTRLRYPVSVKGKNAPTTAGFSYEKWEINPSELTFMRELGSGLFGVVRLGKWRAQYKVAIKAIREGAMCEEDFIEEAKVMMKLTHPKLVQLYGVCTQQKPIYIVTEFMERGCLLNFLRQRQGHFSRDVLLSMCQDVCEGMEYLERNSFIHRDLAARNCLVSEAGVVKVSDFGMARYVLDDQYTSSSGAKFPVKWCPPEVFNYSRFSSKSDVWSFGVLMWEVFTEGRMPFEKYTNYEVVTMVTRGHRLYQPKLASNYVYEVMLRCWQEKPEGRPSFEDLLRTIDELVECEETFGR
UniProt P29597: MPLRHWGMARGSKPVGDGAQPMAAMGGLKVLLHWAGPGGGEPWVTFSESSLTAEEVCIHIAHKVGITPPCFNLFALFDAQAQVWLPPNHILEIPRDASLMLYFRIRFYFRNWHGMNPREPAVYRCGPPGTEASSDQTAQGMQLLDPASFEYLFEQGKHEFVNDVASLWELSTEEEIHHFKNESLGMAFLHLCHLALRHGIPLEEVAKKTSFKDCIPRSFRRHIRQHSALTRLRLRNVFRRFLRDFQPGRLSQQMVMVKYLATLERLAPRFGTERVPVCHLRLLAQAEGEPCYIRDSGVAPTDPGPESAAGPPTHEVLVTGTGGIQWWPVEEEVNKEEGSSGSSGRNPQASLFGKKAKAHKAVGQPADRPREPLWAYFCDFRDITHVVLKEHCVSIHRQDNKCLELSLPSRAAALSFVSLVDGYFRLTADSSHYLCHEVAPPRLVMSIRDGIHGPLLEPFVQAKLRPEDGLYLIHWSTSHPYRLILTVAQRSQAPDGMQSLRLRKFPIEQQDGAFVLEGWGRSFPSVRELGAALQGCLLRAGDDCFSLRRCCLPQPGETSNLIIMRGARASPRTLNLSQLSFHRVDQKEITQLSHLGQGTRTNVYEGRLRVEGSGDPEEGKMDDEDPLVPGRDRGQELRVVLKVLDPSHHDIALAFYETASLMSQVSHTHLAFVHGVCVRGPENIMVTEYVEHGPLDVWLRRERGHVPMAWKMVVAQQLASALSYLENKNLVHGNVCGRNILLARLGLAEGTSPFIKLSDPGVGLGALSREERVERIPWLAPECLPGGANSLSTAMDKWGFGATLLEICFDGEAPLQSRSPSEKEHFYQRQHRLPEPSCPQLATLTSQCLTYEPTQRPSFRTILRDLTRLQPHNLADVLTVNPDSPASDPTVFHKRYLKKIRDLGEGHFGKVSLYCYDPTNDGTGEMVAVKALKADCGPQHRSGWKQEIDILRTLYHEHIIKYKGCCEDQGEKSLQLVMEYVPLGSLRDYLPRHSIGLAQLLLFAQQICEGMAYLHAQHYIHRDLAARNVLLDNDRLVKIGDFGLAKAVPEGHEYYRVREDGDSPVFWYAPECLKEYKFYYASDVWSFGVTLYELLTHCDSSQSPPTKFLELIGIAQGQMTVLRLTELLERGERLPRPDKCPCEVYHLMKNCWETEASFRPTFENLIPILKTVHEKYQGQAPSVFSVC
UniProt Q6PHR2: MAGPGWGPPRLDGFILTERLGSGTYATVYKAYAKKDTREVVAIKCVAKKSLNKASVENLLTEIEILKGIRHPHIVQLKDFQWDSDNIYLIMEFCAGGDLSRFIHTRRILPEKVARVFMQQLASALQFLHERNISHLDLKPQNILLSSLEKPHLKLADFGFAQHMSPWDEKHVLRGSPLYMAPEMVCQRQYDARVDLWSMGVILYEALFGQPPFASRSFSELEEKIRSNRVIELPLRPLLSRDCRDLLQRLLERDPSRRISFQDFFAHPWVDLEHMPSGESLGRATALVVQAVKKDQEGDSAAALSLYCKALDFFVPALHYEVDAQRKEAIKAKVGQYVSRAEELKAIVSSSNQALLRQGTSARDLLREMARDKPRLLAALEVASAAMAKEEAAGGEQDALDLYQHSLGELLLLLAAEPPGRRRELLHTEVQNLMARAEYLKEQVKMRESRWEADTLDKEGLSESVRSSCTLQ
UniProt P07947, whole entry, looked up: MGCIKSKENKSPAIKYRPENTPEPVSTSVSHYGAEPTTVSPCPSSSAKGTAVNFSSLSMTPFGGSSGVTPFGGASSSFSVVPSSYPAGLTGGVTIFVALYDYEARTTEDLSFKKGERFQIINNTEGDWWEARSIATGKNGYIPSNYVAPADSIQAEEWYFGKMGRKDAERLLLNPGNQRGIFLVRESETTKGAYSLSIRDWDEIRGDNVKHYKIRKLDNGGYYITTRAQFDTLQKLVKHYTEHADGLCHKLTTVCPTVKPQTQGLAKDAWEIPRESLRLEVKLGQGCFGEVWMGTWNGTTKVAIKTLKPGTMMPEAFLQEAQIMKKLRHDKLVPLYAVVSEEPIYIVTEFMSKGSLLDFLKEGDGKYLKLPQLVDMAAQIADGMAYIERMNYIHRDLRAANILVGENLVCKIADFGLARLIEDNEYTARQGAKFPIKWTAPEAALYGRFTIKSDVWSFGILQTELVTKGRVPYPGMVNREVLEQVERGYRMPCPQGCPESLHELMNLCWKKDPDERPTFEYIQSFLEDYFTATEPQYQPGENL
UniProt P31749: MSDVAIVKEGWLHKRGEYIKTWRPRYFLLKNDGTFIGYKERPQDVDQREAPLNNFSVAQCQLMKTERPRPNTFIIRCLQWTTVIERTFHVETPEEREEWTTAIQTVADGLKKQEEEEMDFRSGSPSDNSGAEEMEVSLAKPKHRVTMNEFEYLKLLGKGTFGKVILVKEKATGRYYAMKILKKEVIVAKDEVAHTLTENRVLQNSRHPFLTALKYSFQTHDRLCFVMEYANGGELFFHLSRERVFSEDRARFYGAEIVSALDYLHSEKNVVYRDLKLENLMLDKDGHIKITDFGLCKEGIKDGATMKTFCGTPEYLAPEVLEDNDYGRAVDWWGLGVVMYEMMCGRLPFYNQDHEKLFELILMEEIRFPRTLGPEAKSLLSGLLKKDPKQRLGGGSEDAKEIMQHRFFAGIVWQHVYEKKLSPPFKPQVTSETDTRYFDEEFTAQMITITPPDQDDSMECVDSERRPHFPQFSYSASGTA

Key:
Settings in all cases: K562; 2-18 h
RET = RET (UniProt P07949); test: kinase-Nluc reporter destabilization hit call (1 = scored as downregulated) (binary); higher = compound decreases kinase abundance
[1] = target: RET_M918T (clone: RET_mut) (UniProt P07949); test: as above
RIOK1 = RIOK1 (UniProt Q9BRS2); test: as above
RIPK1 = RIPK1 (UniProt Q13546); test: as above
RIPK2 = RIPK2 (UniProt O43353); test: as above
ROR2 = ROR2 (UniProt Q01974); test: as above
RPS6KA1 = RPS6KA1 (UniProt Q15418); test: as above
SPHK1 = SPHK1 (UniProt Q9NYA1); test: as above
SRC = SRC (UniProt P12931); test: as above
STK24 = STK24 (UniProt Q9Y6E0); test: as above
STK38 = STK38 (UniProt Q15208); test: as above
SYK = SYK (UniProt P43405); test: as above
TEC = TEC (UniProt P42680); test: as above
TYK2 = TYK2 (UniProt P29597); test: as above
ULK3 = ULK3 (UniProt Q6PHR2); test: as above
YES1 = YES1 (UniProt P07947); test: as above
ZAK = ZAK (UniProt Q9NYL2); test: as above
ZAP70 = ZAP70 (UniProt P43403); test: as above
ABL1 = ABL1 (UniProt P00519); test: number of time points (of 5) at which kinase-Nluc abundance scored as decreased, DMSO-normalised (count); higher = more persistent destabilization
AKT1 = AKT1 (UniProt P31749); test: as above

SMILES	kinase-Nluc reporter destabilization hit call (RET)	kinase-Nluc reporter destabilization hit call [1]	kinase-Nluc reporter destabilization hit call (RIOK1)	kinase-Nluc reporter destabilization hit call (RIPK1)	kinase-Nluc reporter destabilization hit call (RIPK2)	kinase-Nluc reporter destabilization hit call (ROR2)	kinase-Nluc reporter destabilization hit call (RPS6KA1)	kinase-Nluc reporter destabilization hit call (SPHK1)	kinase-Nluc reporter destabilization hit call (SRC)	kinase-Nluc reporter destabilization hit call (STK24)	kinase-Nluc reporter destabilization hit call (STK38)	kinase-Nluc reporter destabilization hit call (SYK)	kinase-Nluc reporter destabilization hit call (TEC)	kinase-Nluc reporter destabilization hit call (TYK2)	kinase-Nluc reporter destabilization hit call (ULK3)	kinase-Nluc reporter destabilization hit call (YES1)	kinase-Nluc reporter destabilization hit call (ZAK)	kinase-Nluc reporter destabilization hit call (ZAP70)	number of time points (ABL1)	number of time points (AKT1)
Nc1nccc(Oc2ccc3c(C(=O)Nc4cccc(C(F)(F)F)c4)cccc3c2)n1 (10 µM)	inactive: 0	inactive: 0	inactive: 0	inactive: 0	inactive: 0	inactive: 0	inactive: 0	inactive: 0	inactive: 0	inactive: 0	inactive: 0	inactive: 0	inactive: 0	inactive: 0	inactive: 0	inactive: 0	inactive: 0	inactive: 0	0	0
C[C@@H]1COC(Nc2ccc3ncnc(Nc4ccc(OCc5nccs5)c(Cl)c4)c3c2)=N1 [Varlitinib] (10 µM)	inactive: 0	inactive: 0	inactive: 0	inactive: 0	inactive: 0	inactive: 0	inactive: 0	inactive: 0	inactive: 0	inactive: 0	inactive: 0	inactive: 0	inactive: 0	inactive: 0	inactive: 0	inactive: 0	inactive: 0	inactive: 0	0	0
CCCS(=O)(=O)N[C@H]1C[C@@H](N(C)c2ncnc3[nH]ccc23)C1 [Abrocitinib] (10 µM)	inactive: 0	inactive: 0	inactive: 0	inactive: 0	inactive: 0	inactive: 0	inactive: 0	inactive: 0	inactive: 0	inactive: 0	inactive: 0	inactive: 0	inactive: 0	inactive: 0	inactive: 0	inactive: 0	inactive: 0	inactive: 0	0	0
Cc1cccc(-c2nn3c(c2-c2ccnc4ccc(C(N)=O)cc24)CCC3)n1 [Galunisertib] (10 µM)	inactive: 0	inactive: 0	inactive: 0	inactive: 0	inactive: 0	inactive: 0	inactive: 0	inactive: 0	inactive: 0	inactive: 0	inactive: 0	inactive: 0	inactive: 0	inactive: 0	inactive: 0	inactive: 0	inactive: 0	inactive: 0	0	0
CN(C)C(=O)c1cc2cnc(Nc3ccc(N4CCN(CCCCNC(=O)COc5cccc6c5C(=O)N(C5CCC(=O)NC5=O)C6=O)CC4)cn3)nc2n1C1CCCC1 (stereo not given) (10 µM)	inactive: 0	inactive: 0	inactive: 0	inactive: 0	inactive: 0	inactive: 0	inactive: 0	inactive: 0	inactive: 0	inactive: 0	inactive: 0	inactive: 0	inactive: 0	inactive: 0	inactive: 0	inactive: 0	inactive: 0	inactive: 0	0	0
Fc1ccc(Cl)cc1-c1nc(Nc2ccncc2)c2nccnc2n1 (10 µM)	inactive: 0	inactive: 0	inactive: 0	inactive: 0	inactive: 0	inactive: 0	inactive: 0	inactive: 0	inactive: 0	inactive: 0	inactive: 0	inactive: 0	inactive: 0	inactive: 0	inactive: 0	inactive: 0	inactive: 0	inactive: 0	0	0
C[C@@H](NC(=O)c1ncnc(N)c1Cl)c1ncc(C(=O)Nc2cc(C(F)(F)F)c(Cl)cn2)s1 (2.5 µM)	inactive: 0	inactive: 0	inactive: 0	inactive: 0	inactive: 0	inactive: 0	inactive: 0	inactive: 0	inactive: 0	inactive: 0	inactive: 0	inactive: 0	inactive: 0	inactive: 0	inactive: 0	inactive: 0	inactive: 0	inactive: 0	2	0
Cc1ccc(NC(=O)N2CCN(c3nc(N)nc4sc(-c5cccnc5)nc34)CC2)cc1 [PI4KIII beta inhibitor 3] (10 µM)	inactive: 0	inactive: 0	inactive: 0	inactive: 0	inactive: 0	inactive: 0	inactive: 0	inactive: 0	inactive: 0	inactive: 0	inactive: 0	inactive: 0	inactive: 0	inactive: 0	inactive: 0	inactive: 0	inactive: 0	inactive: 0	0	0
CC(C)=CCC[C@](C)(O[C@@H]1O[C@H](CO[C@@H]2O[C@H](CO)[C@@H](O)[C@H](O)[C@H]2O)[C@@H](O)[C@H](O)[C@H]1O)[C@H]1CC[C@]2(C)[C@@H]1[C@H](O)C[C@@H]1[C@@]3(C)CC[C@H](O[C@@H]4O[C@H](CO)[C@@H](O)[C@H](O)[C@H]4O[C@@H]4O[C@H](CO)[C@@H](O)[C@H](O)[C@H]4O)C(C)(C)[C@@H]3CC[C@]12C [Ginsenoside Rb1] (10 µM)	inactive: 0	inactive: 0	inactive: 0	inactive: 0	inactive: 0	inactive: 0	inactive: 0	inactive: 0	inactive: 0	inactive: 0	inactive: 0	inactive: 0	inactive: 0	inactive: 0	inactive: 0	inactive: 0	inactive: 0	inactive: 0	0	0
Nc1nc(Nc2ccc3c(c2)CC[C@@H](N2CCCC2)CC3)nn1-c1cc2c(nn1)-c1ccccc1CCC2 [Bemcentinib] (2.5 µM)	inactive: 0	inactive: 0	inactive: 0	inactive: 0	inactive: 0	inactive: 0	inactive: 0	inactive: 0	inactive: 0	inactive: 0	inactive: 0	inactive: 0	inactive: 0	inactive: 0	inactive: 0	inactive: 0	inactive: 0	inactive: 0	0	0
S=C(NCc1ccc2c(c1)OCO2)N1CCN(c2ncnc3c2oc2ccccc23)CC1 [Amuvatinib] (2.5 µM)	inactive: 0	inactive: 0	inactive: 0	inactive: 0	inactive: 0	inactive: 0	inactive: 0	inactive: 0	inactive: 0	inactive: 0	inactive: 0	inactive: 0	inactive: 0	inactive: 0	inactive: 0	inactive: 0	inactive: 0	inactive: 0	0	0
COc1cc(N2CCC(O)CC2)ccc1Nc1nc(Nc2ccccc2S(=O)(=O)C(C)C)c2[nH]cnc2n1 (10 µM)	inactive: 0	inactive: 0	inactive: 0	inactive: 0	inactive: 0	inactive: 0	inactive: 0	inactive: 0	inactive: 0	inactive: 0	inactive: 0	inactive: 0	inactive: 0	inactive: 0	inactive: 0	inactive: 0	inactive: 0	inactive: 0	0	0
CO[C@@H]1[C@H](N(C)C(=O)c2ccccc2)C[C@H]2O[C@]1(C)n1c3ccccc3c3c4c(c5c6ccccc6n2c5c31)C(=O)NC4 [Midostaurin] (2.5 µM)	inactive: 0	inactive: 0	inactive: 0	inactive: 0	inactive: 0	inactive: 0	inactive: 0	inactive: 0	inactive: 0	inactive: 0	inactive: 0	inactive: 0	inactive: 0	inactive: 0	inactive: 0	inactive: 0	inactive: 0	inactive: 0	4	0
O=C1C=CC2=C3c4cc(O)c(O)cc4CC3(O)COC2=C1O (stereo not given) [Hematein] (10 µM)	inactive: 0	inactive: 0	inactive: 0	inactive: 0	inactive: 0	inactive: 0	inactive: 0	inactive: 0	inactive: 0	inactive: 0	inactive: 0	inactive: 0	inactive: 0	inactive: 0	inactive: 0	inactive: 0	inactive: 0	inactive: 0	0	0
CC(C)c1cc2c(c(O)c1O)[C@@]13CCCC(C)(C)[C@@H]1C[C@@H]2OC3=O [Carnosol] (2.5 µM)	inactive: 0	inactive: 0	inactive: 0	inactive: 0	inactive: 0	inactive: 0	inactive: 0	inactive: 0	inactive: 0	inactive: 0	inactive: 0	inactive: 0	inactive: 0	inactive: 0	inactive: 0	inactive: 0	inactive: 0	inactive: 0	0	0
Cc1nn(CC(F)(F)F)cc1Nc1ncc(Br)c(NCc2ccc(S(N)(=O)=O)cc2)n1 (10 µM)	inactive: 0	inactive: 0	inactive: 0	inactive: 0	inactive: 0	inactive: 0	inactive: 0	inactive: 0	inactive: 0	inactive: 0	inactive: 0	inactive: 0	inactive: 0	inactive: 0	inactive: 0	inactive: 0	inactive: 0	inactive: 0	0	0
CN1CCN(c2ccc(-n3cc(-c4ccncc4OCC4CCNCC4)cn3)cc2)CC1 [MELK-8a (hydrochloride)] (10 µM)	inactive: 0	inactive: 0	inactive: 0	inactive: 0	inactive: 0	inactive: 0	inactive: 0	inactive: 0	inactive: 0	inactive: 0	inactive: 0	inactive: 0	inactive: 0	inactive: 0	inactive: 0	inactive: 0	inactive: 0	inactive: 0	4	0
O=C(O)/C=C(\CCc1ccc(Cl)cc1)c1ccccc1 (10 µM)	inactive: 0	inactive: 0	inactive: 0	inactive: 0	inactive: 0	inactive: 0	inactive: 0	inactive: 0	inactive: 0	inactive: 0	inactive: 0	inactive: 0	inactive: 0	inactive: 0	inactive: 0	inactive: 0	inactive: 0	inactive: 0	0	0

Laid out differently: entries from further up.
SMILES | kinase-Nluc reporter destabilization hit call (RET) | kinase-Nluc reporter destabilization hit call [1] | kinase-Nluc reporter destabilization hit call (RIOK1) | kinase-Nluc reporter destabilization hit call (RIPK1) | kinase-Nluc reporter destabilization hit call (RIPK2) | kinase-Nluc reporter destabilization hit call (ROR2) | kinase-Nluc reporter destabilization hit call (RPS6KA1) | kinase-Nluc reporter destabilization hit call (SPHK1) | kinase-Nluc reporter destabilization hit call (SRC) | kinase-Nluc reporter destabilization hit call (STK24) | kinase-Nluc reporter destabilization hit call (STK38) | kinase-Nluc reporter destabilization hit call (SYK) | kinase-Nluc reporter destabilization hit call (TEC) | kinase-Nluc reporter destabilization hit call (TYK2) | kinase-Nluc reporter destabilization hit call (ULK3) | kinase-Nluc reporter destabilization hit call (YES1) | kinase-Nluc reporter destabilization hit call (ZAK) | kinase-Nluc reporter destabilization hit call (ZAP70) | number of time points (ABL1) | number of time points (AKT1)
C[C@@H]1COC(Nc2ccc3ncnc(Nc4ccc(OCc5nccs5)c(Cl)c4)c3c2)=N1 [Varlitinib] (10 µM) | inactive: 0 | inactive: 0 | inactive: 0 | inactive: 0 | inactive: 0 | inactive: 0 | inactive: 0 | inactive: 0 | inactive: 0 | inactive: 0 | inactive: 0 | inactive: 0 | inactive: 0 | inactive: 0 | inactive: 0 | inactive: 0 | inactive: 0 | inactive: 0 | 0 | 0
CN1CCN(c2ccc(-n3cc(-c4ccncc4OCC4CCNCC4)cn3)cc2)CC1 [MELK-8a (hydrochloride)] (10 µM) | inactive: 0 | inactive: 0 | inactive: 0 | inactive: 0 | inactive: 0 | inactive: 0 | inactive: 0 | inactive: 0 | inactive: 0 | inactive: 0 | inactive: 0 | inactive: 0 | inactive: 0 | inactive: 0 | inactive: 0 | inactive: 0 | inactive: 0 | inactive: 0 | 4 | 0
